Some entries share one result that the patent states for a list of compounds. At least one compound was matched to its structure with a doubt left.
How the values were obtained:
Sphaerotheca fuliginea = test: In vivo protective test on Sphaerotheca fuliginea (cucumbers); conditions: 100 ppm of active ingredient, evaluated 7 days after inoculation
Protocol: In Vivo Protective Test on Sahaerotheca fuliginea (Cucumbers)
(§1) To produce a suitable preparation of active compound, 1 part by weight of active compound is mixed with the stated amounts of solvent and emulsifier, and the concentrate is diluted with water to the desired concentration.
To test for protect activity, young plants are sprayed with the preparation of active compound at the stated rate of application. After the spray coating has dried on, the plants are inoculated with an aqueous spore suspension of Sphaerotheca fuliginea. The plants are then placed in a greenhouse at approximately 23° C. and a relative atmospheric humidity of approximately 70%.
(§2) The test is evaluated 7 days after the inoculation. 0% means an efficacy which corresponds to that of the control, while an efficacy of 100% means that no disease is observed.

Uromyces appendiculatus = test: In vivo protective test on Uromyces appendiculatus (beans); conditions: 100 ppm of active ingredient, evaluated 10 days after inoculation
Alternaria solani = test: In vivo protective test on Alternaria solani (leaf spot of tomato); conditions: 500 ppm of active ingredient, evaluated 7 days after inoculation
Protocol: In Vivo Protective Test on Alternaria solani (Leaf Spot of Tomato)
as §1
To test for protective activity, young plants are sprayed with the preparation of active compound at the stated rate of application. After the spray coating has dried on, the plants are inoculated with an aqueous spore suspension of Alternatia solani. The plants remain for one day in an incubation cabinet at approximately 20° C. and a relative atmospheric humidity of 100%. Then the plants are placed in an incubation cabinet at approximately 20° C. and a relative atmospheric humidity of 96%.
The test is evaluated 7 days after the inoculation. 0% means an efficacy which corresponds to that of the control while an efficacy of 100% means that no disease is observed.

[1] = tested on: Puccinia recondita f. Sp. tritici; test: In vivo preventive test on Puccinia recondita f. Sp. tritici (wheat brown rust); conditions: 1000 ppm of active ingredient, evaluated 10 days after inoculation
Protocol: In Vivo Preventive Test on Puccinia recondita f. Sp. tritici (Wheat Brown Rust)
as §1
To test for preventive activity, young plants are […]. After the spray coating has dried on, the plants are sprayed with the preparation of active compound at the stated rate of application. The plants remain for 24 hours in an incubation cabinet at 20° C. and a relative atmospheric humidity of 100%.
The plants are placed in a greenhouse at a temperature of approximately 20° C. and a relative atmospheric humidity of approximately 80% to promote the development of rust pustules.
The test is evaluated 10 days after the inoculation. 0% means an efficacy which corresponds to that of the control, while an efficacy of 100% means that no disease is observed.

Podosphaera leucotricha = test: In vivo protective test on Podosphaera leucotricha (apples); conditions: 100 ppm of active ingredient, evaluated 10 days after inoculation
Excerpt: In Vivo Protective Test on Podosphaera leucotricha (Apples) [table] […] To test for protective activity, young plants are sprayed with the preparation of active compound at the stated rate of application. After the spray coating has dried on, the plants are inoculated with an aqueous spore suspension of the causal agent of apple mildew (Podosphaera leucotricha).

[2] = tested on: Erysiphe graminis f.sp. hordei; test: In vivo preventive test on Erysiphe graminis (powdery mildew on barley); conditions: 1000 ppm of active ingredient, evaluated 7 days after inoculation
Protocol: In Vivo Preventive Test on Erysiphe gramini (Powdery Mildew on Barley)
To produce a suitable preparation of active compound, 1 part by weight of active compound or active compound combination is mixed with the stated amounts of solvent and emulsifier, and the concentrate is diluted with water to the desired concentration.
To test for preventive activity, young plants are sprayed with the preparation of active compound or active compound combination at the stated rate of application.
After the spray coating has dried on, the plants are dusted with spores of Erysiphe graminis f.sp. hordei
The plants are placed in a greenhouse at a temperature of approximately 20° C. and a relative atmospheric humidity of approximately 80% to promote the development of mildew pustules.
as §2

| Compound | efficacy (Sphaerotheca fuliginea) [%] | efficacy (Uromyces appendiculatus) [%] | efficacy (Alternaria solani) [%] | efficacy [1] [%] | efficacy (Podosphaera leucotricha) [%] | efficacy [2] [%] |
| --- | --- | --- | --- | --- | --- | --- |
| CCN(C)C=Nc1cc(C)c(Oc2ccc(Cl)c(C(C)(C)C)c2)cc1C [Example 2, N-Ethyl-N-methyl-N′-[4-(3-t-butyl-4-chlorphenoxy)-2,5-xylyl]formamidine] | ≥ 70 | ≥ 70 | ≥ 70 | ≥ 70 | ≥ 70 | ≥ 70 |
| CCN(C)/C=N/c1cc(C)c(Oc2ccc(Cl)c(C(C)C)c2)cc1C [Example 3] |  | ≥ 70 |  |  |  |  |
| Cc1cc(Oc2ccc(Cl)c(C(C)(C)C)c2)c(C)cc1/N=C/N(C)C1CC1 [Example 7] | ≥ 70 | ≥ 70 | ≥ 70 | ≥ 70 | ≥ 70 | ≥ 70 |
| CCN(C)/C(S)=N/c1cc(C)c(Oc2ccc(Cl)c(C(C)(C)C)c2)cc1C [Example 10] |  |  |  | ≥ 70 |  |  |
| CCc1cc(Oc2cc(C)c(/N=C/N(C)C3CC3)cc2Cl)ccc1Cl [Example 12] | ≥ 70 |  |  |  |  |  |
| CCc1cc(Oc2cc(C)c(/N=C/N(C)C3CC3)cc2C)ccc1Cl [Example 15] | ≥ 70 |  | ≥ 70 | ≥ 70 | ≥ 70 | ≥ 70 |
| Cc1cc(Oc2cc(C)c(/N=C/N(C)C(C)C)cc2C)ccc1Cl [Example 16] |  | ≥ 70 |  |  |  |  |
| CCN(C)/C=N/c1cc(Cl)c(Oc2ccc(Cl)c(C(C)C)c2)cc1C [Example 20] |  | ≥ 70 |  |  |  |  |
| Cc1cc(Oc2ccc(Cl)c(C(C)C)c2)c(Cl)cc1/N=C/N(C)C1CC1 [Example 23] |  |  | ≥ 70 | ≥ 70 |  | ≥ 70 |
| Cc1cc(Oc2ccc(Cl)c(C(C)(C)C)c2)c(Cl)cc1/N=C/N(C)C1CC1 [Example 24] |  |  | ≥ 70 | ≥ 70 |  | ≥ 70 |
| CCN(C)/C=N/c1cc(Cl)c(Oc2ccc(Cl)c(C(C)(C)C)c2)cc1C [Example 26] |  | ≥ 70 |  |  |  |  |
| Cc1cc(Oc2ccc(Cl)c(C(C)C)c2)c(C)cc1/N=C/N(C)C(C)C [Example 28] |  | ≥ 70 |  |  |  |  |
| Cc1cc(Oc2ccc(Br)c(C(C)C)c2)c(Cl)cc1/N=C/N(C)C1CC1 [Example 31] | ≥ 70 |  |  |  | ≥ 70 |  |
| Cc1cc(Oc2ccc(Cl)c(C(C)(C)C)c2)c(Cl)cc1/N=C/N1CCCCC1 [Example 36] |  |  |  | ≥ 70 |  | ≥ 70 |
| CCc1cc(Oc2cc(C)c(/N=C/N3CCCCC3)cc2Cl)ccc1Cl [Example 37] | ≥ 70 |  |  | ≥ 70 | ≥ 70 | ≥ 70 |
| Cc1cc(Oc2cc(C)c(/N=C/N(C)C(C)C)cc2C)ccc1F [Example 44] |  | ≥ 70 |  |  |  |  |
| Cc1cc(Oc2ccc(Cl)c(C(C)(C)C)c2)c(C)cc1/N=C/N1CCCCC1 [Example 45] | ≥ 70 |  |  | ≥ 70 | ≥ 70 |  |
| CCN(C)/C=N/c1cc(C)c(Oc2ccc(Cl)c(CC(C)(C)C)c2)cc1C [Example 46] |  |  |  | ≥ 70 |  |  |
| CCN(C)/C=N/c1cc(C)c(Oc2ccc(Cl)c(C[Si](C)(C)C)c2)cc1C [Example 47] |  |  |  | ≥ 70 |  |  |
| CCN(C)/C=N/c1cc(C)c(Oc2ccc(Cl)c(C3CCCCC3)c2)cc1C [Example 48] |  |  |  | ≥ 70 |  |  |
| CCN(C)/C=N/c1cc(C)c(Oc2ccc(Cl)c(C(C)(C)OC)c2)cc1C [Example 57] |  | ≥ 70 |  | ≥ 70 | ≥ 70 |  |

Reference: US8183296B2, “Pesticide phenyloxy substituted phenylamidine derivatives” (Bayer Cropscience AG, priority 2005, dated 2012)
